## Library screen at single concentrations

Data taken from ChEMBL document CHEMBL3988442, “University of Dundee, Small-Polar-MMV Screening Library” (2021).

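Whole-parasite assay of Trypanosoma brucei over 72 hours; the read-out is not stated. Compounds at 10 µM. The record gives no direction; compounds that gave an IC50 in retests scored well above the rest, so higher reads as stronger inhibition. Values scatter widely below zero; nearly all retest evidence comes from the higher of the two concentrations used. Of about 2,700 compounds tested this way, about 14 (0.51%) reached 50% or more in at least one test.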

Values are the deposited “Percent Effect”, in %. The record does not define 0% and 100%; most values in the screen are far below 50% and negative numbers occur (in some assays of this library far below -100). Compounds were drawn at random from those tested, without regard to their results.

{"compound": "COc1cccc(C(=O)NC(CC(=O)O)c2cccs2)c1OC", "stereo": "stereo not drawn", "percent effect": -30.96}
{"compound": "Cn1cnnc1C1CCCN(C(=O)c2cc(Cl)c(Cl)n2C)C1", "stereo": "stereo not drawn", "percent effect": -57.09}
{"compound": "CCn1ccnc1CN1CCN(CC(O)c2cccc(F)c2)CC1", "stereo": "stereo not drawn", "percent effect": -45.45}
{"compound": "COc1ccc(Cl)cc1C(=O)NC(CC(=O)O)c1cccs1", "stereo": "stereo not drawn", "percent effect": -32.12}
{"compound": "CC(Oc1ccccc1)C(=O)N1CCCN(Cc2nccn2C)CC1", "stereo": "stereo not drawn", "percent effect": -21.02}
{"compound": "CCN(Cc1cccc2c1OCO2)C(=O)Nc1cn[nH]c1", "percent effect": -63.06}
{"compound": "Cn1c(NCC(O)c2ccc(F)cc2)c(C#N)c(=O)n(C)c1=O", "stereo": "stereo not drawn", "percent effect": -13.16}
{"compound": "Cc1ccc(S(=O)(=O)N2CCc3ccc(F)cc32)cc1C(=O)O", "percent effect": -20.36}
{"compound": "c1cnc(-c2nc(CN3CCCC3Cn3cncn3)cs2)nc1", "stereo": "stereo not drawn", "percent effect": -3.097}
{"compound": "CN(Cc1noc(C2CC2)n1)C1CCN(Cc2ncc[nH]2)C1", "stereo": "stereo not drawn", "percent effect": -62.97}
{"compound": "Cn1cc(CCN2CCOC(CNc3cccnn3)C2)cn1", "stereo": "stereo not drawn", "percent effect": -53.76}
{"compound": "O=C(c1ccc2cc[nH]c2c1)N1CCCN(Cc2cscn2)CC1", "percent effect": -54.26}
{"compound": "CCc1nnc(C2Cc3ccccc3CN2Cc2nc(C)no2)o1", "stereo": "stereo not drawn", "percent effect": -37.93}
{"compound": "Cc1ccc(-c2nc(C(=O)N(C)C3CCN(C)CC3)cs2)c(C)c1", "percent effect": -57.34}
{"compound": "CCOC1CCN(C(=O)NCCc2ccn(-c3ccccc3)n2)CC1", "percent effect": -34.62}
{"compound": "Cn1cnc2c1CCN(CCCS(=O)(=O)c1ccccc1)C2", "percent effect": -27.52}
{"compound": "Cc1ccccc1CN(C)C(=O)CN1CCCC(Cn2cncn2)C1", "stereo": "stereo not drawn", "percent effect": -50.27}
{"compound": "O=C(CCn1cncn1)NCC(c1ccco1)N1CCCC1", "stereo": "stereo not drawn", "percent effect": -60.69}
{"compound": "O=C(CCCNc1ncccn1)Nc1cc(C(F)(F)F)c[nH]c1=O", "percent effect": -32.27}
{"compound": "NC(=O)Cn1cc(NC(=O)NCCN2CCc3ccccc3C2)cn1", "percent effect": -24.97}
{"compound": "Cc1noc2ncc(C(=O)NCC3CCCOC3)cc12", "stereo": "stereo not drawn", "percent effect": -61.66}
{"compound": "Cc1cnn(CC2CCCCN2CC(=O)Nc2nc(C)cs2)c1", "stereo": "stereo not drawn", "percent effect": -7.087}
{"compound": "CSCC(=O)N1CCCN(Cc2cscn2)CC1", "percent effect": -33.74}
{"compound": "CC(C)C(=O)N(C)CC(=O)Nc1ccc(Br)cn1", "percent effect": -19.91}
{"compound": "COc1ncccc1NC(=O)N(CC(C)C)C1CC1", "percent effect": -51.22}
{"compound": "c1ccc(CCCN2CCN(c3ccc4nncn4n3)CC2)cc1", "percent effect": -24.8}
{"compound": "Cc1cccc(OCCN2CCCC(c3cc(C(N)=O)[nH]n3)C2)c1", "stereo": "stereo not drawn", "percent effect": -33.49}
{"compound": "Clc1ccc(CN2CCCCC2Cn2cncn2)c2ncccc12", "stereo": "stereo not drawn", "percent effect": 4.102}
{"compound": "Cc1ccc(-c2nc(CN3CCn4c(C)nnc4C3)co2)cc1", "percent effect": -14.13}
{"compound": "CC(Cn1cccn1)NC(=O)CCC(=O)c1cccs1", "stereo": "stereo not drawn", "percent effect": -30.43}
{"compound": "Cc1noc(C(C)N2CCN(Cc3nc(C)c(C)o3)CC2)n1", "stereo": "stereo not drawn", "percent effect": -61.3}
{"compound": "c1ccc(Cc2noc(CN(Cc3cccs3)CC3CCCO3)n2)cc1", "stereo": "stereo not drawn", "percent effect": -21.74}
{"compound": "CCCc1nnc(NC(=O)Cc2c(C)nc(C)[nH]c2=O)s1", "percent effect": -42.61}
{"compound": "Cc1cc(CN(Cc2cccs2)CC2CCCO2)on1", "stereo": "stereo not drawn", "percent effect": -35.31}
{"compound": "Cc1cc(C)cc(OCCN2CCn3c(C)nnc3C2)c1", "percent effect": -5.8}

3 of the entries, repeated:

- CN(Cc1noc(C2CC2)n1)C1CCN(Cc2ncc[nH]2)C1 (stereo not drawn) : -62.97%
- Cc1cc(CN(Cc2cccs2)CC2CCCO2)on1 (stereo not drawn) : -35.31%
- Cc1noc2ncc(C(=O)NCC3CCCOC3)cc12 (stereo not drawn) : -61.66%